Test results reported in patent US11932651B1, “2-benzo-[3,4-B]quinolino-[b,g]indeno[1′,2′:3,4]fluoreno-[1,2-d]oxonine-24-chloro-5,11,16,21-tetraone as an antimicrobial compound” (KING FAISAL UNIVERSITY, priority 2023, dated 2024).
At least one compound was matched to its structure with a doubt left.

Assays:
Type in all cases: cell-based
[1] = tested on: Staphylococcus aureus; assay: Antimicrobial screening by agar dilution, Staphylococcus aureus; conditions: for antimicrobial activity, St. Aereus, Exposure time (min) 10: exposure 10 min; for antimicrobial activity, St. Aereus, Exposure time (min) 20: exposure 20 min; for antimicrobial activity, St. Aereus, Exposure time (min) 40: exposure 40 min; for antimicrobial activity, St. Aereus, Exposure time (min) 60: exposure 60 min
Description: (§1) The antibacterial properties of the synthesized compound 2-benzo-[3,4-b]quinolino-[b,g]indeno[1′,2′:3,4]fluoreno-[1,2-d]oxonine-24-chloro-5,11,16,21-tetraone were studied by the method of agar dilution. Test solutions of each compound was prepared in concentration of 1% using dimethylformamide as a solvent then they are diluted in physiological solution to obtain the final experimental dilutions 1:100, 1:200, 1:400, 1:800. The effect of these substances are compared with furacillin in a controllable study. The testing microbes used were gram positive bacteria Staphylococcus aureus, gram negative bacteria Pseudomonas aeruginosa and Escherichia coli and Candida albicans fungus. The experiments used for this survey were meat-pentonlu agar (EPA) for cultivation of bacteria and Saburo environment for the fungus. Each experiment used 1 mL of test solution on each plate […]. Two drops of emulsified with microbes feel were added. All experimental samples were taken from the agar after 10, 20, 40, 60 minutes in the environment on the basis of Patrk planted. The bacteria were cultivated at a temperature of 37° C. for 1 day and the mushroom was kept in a thermostat for […] at a temperature of 28° C. Then results were checked.

[2] = tested on: Escherichia coli; assay: Antimicrobial screening by agar dilution, Escherichia coli; conditions: for antimicrobial activity, E. Coli, Exposure time (min) 10: exposure 10 min; for antimicrobial activity, E. Coli, Exposure time (min) 20: exposure 20 min; for antimicrobial activity, E. Coli, Exposure time (min) 40: exposure 40 min; for antimicrobial activity, E. Coli, Exposure time (min) 60: exposure 60 min
Description: as §1

[3] = tested on: Pseudomonas aeruginosa; assay: Antimicrobial screening by agar dilution, Pseudomonas aeruginosa; conditions: for antimicrobial activity, Ps. aeruginosa, Exposure time (min) 10: exposure 10 min; for antimicrobial activity, Ps. aeruginosa, Exposure time (min) 20: exposure 20 min; for antimicrobial activity, Ps. aeruginosa, Exposure time (min) 40: exposure 40 min; for antimicrobial activity, Ps. aeruginosa, Exposure time (min) 60: exposure 60 min
Description: as §1

[4] = tested on: Candida albicans; assay: Antimicrobial screening by agar dilution, Candida albicans; conditions: for antimicrobial activity, Candida albicans, Exposure time (min) 10: exposure 10 min; for antimicrobial activity, Candida albicans, Exposure time (min) 20: exposure 20 min; for antimicrobial activity, Candida albicans, Exposure time (min) 40: exposure 40 min; for antimicrobial activity, Candida albicans, Exposure time (min) 60: exposure 60 min
Description: as §1

[5] = dilution rate 1:100 of 1% solution
[6] = dilution rate 1:200 of 1% solution
[7] = dilution rate 1:400 of 1% solution
[8] = dilution rate 1:800 of 1% solution

NC(=O)N/N=C/c1ccc([N+](=O)[O-])o1 [Furacilin, furacillin]
−: antimicrobial activity, St. Aereus, Exposure time (min) 10 [1, 5] | antimicrobial activity, St. Aereus, Exposure time (min) 20 [1, 5] | antimicrobial activity, St. Aereus, Exposure time (min) 40 [1, 5] | antimicrobial activity, St. Aereus, Exposure time (min) 60 [1, 5] | antimicrobial activity, E. Coli, Exposure time (min) 10 [2, 5] | antimicrobial activity, E. Coli, Exposure time (min) 20 [2, 5] | antimicrobial activity, E. Coli, Exposure time (min) 40 [2, 5] | antimicrobial activity, E. Coli, Exposure time (min) 60 [2, 5] | antimicrobial activity, Candida albicans, Exposure time (min) 10 [4, 5] | antimicrobial activity, Candida albicans, Exposure time (min) 20 [4, 5]
+: antimicrobial activity, St. Aereus, Exposure time (min) 10 [1, 6] | antimicrobial activity, St. Aereus, Exposure time (min) 20 [1, 6] | antimicrobial activity, St. Aereus, Exposure time (min) 40 [1, 6] | antimicrobial activity, St. Aereus, Exposure time (min) 60 [1, 6] | antimicrobial activity, St. Aereus, Exposure time (min) 10 [1, 7] | antimicrobial activity, St. Aereus, Exposure time (min) 20 [1, 7] | antimicrobial activity, St. Aereus, Exposure time (min) 40 [1, 7] | antimicrobial activity, St. Aereus, Exposure time (min) 60 [1, 7] | antimicrobial activity, St. Aereus, Exposure time (min) 10 [1, 8] | antimicrobial activity, St. Aereus, Exposure time (min) 20 [1, 8] | antimicrobial activity, St. Aereus, Exposure time (min) 40 [1, 8] | antimicrobial activity, St. Aereus, Exposure time (min) 60 [1, 8] | antimicrobial activity, E. Coli, Exposure time (min) 10 [2, 6] | antimicrobial activity, E. Coli, Exposure time (min) 20 [2, 6] | antimicrobial activity, E. Coli, Exposure time (min) 40 [2, 6] | antimicrobial activity, E. Coli, Exposure time (min) 60 [2, 6] | antimicrobial activity, E. Coli, Exposure time (min) 10 [2, 7] | antimicrobial activity, E. Coli, Exposure time (min) 20 [2, 7] | antimicrobial activity, E. Coli, Exposure time (min) 40 [2, 7] | antimicrobial activity, E. Coli, Exposure time (min) 60 [2, 7] | antimicrobial activity, E. Coli, Exposure time (min) 10 [2, 8] | antimicrobial activity, E. Coli, Exposure time (min) 20 [2, 8] | antimicrobial activity, E. Coli, Exposure time (min) 40 [2, 8] | antimicrobial activity, E. Coli, Exposure time (min) 60 [2, 8] | antimicrobial activity, Ps. aeruginosa, Exposure time (min) 10 [3, 5] | antimicrobial activity, Ps. aeruginosa, Exposure time (min) 20 [3, 5] | antimicrobial activity, Ps. aeruginosa, Exposure time (min) 40 [3, 5] | antimicrobial activity, Ps. aeruginosa, Exposure time (min) 60 [3, 5] | antimicrobial activity, Ps. aeruginosa, Exposure time (min) 10 [3, 6] | antimicrobial activity, Ps. aeruginosa, Exposure time (min) 20 [3, 6] | antimicrobial activity, Ps. aeruginosa, Exposure time (min) 40 [3, 6] | antimicrobial activity, Ps. aeruginosa, Exposure time (min) 60 [3, 6] | antimicrobial activity, Ps. aeruginosa, Exposure time (min) 10 [3, 7] | antimicrobial activity, Ps. aeruginosa, Exposure time (min) 20 [3, 7] | antimicrobial activity, Ps. aeruginosa, Exposure time (min) 40 [3, 7] | antimicrobial activity, Ps. aeruginosa, Exposure time (min) 60 [3, 7] | antimicrobial activity, Ps. aeruginosa, Exposure time (min) 10 [3, 8] | antimicrobial activity, Ps. aeruginosa, Exposure time (min) 20 [3, 8] | antimicrobial activity, Ps. aeruginosa, Exposure time (min) 40 [3, 8] | antimicrobial activity, Ps. aeruginosa, Exposure time (min) 60 [3, 8] | antimicrobial activity, Candida albicans, Exposure time (min) 40 [4, 5] | antimicrobial activity, Candida albicans, Exposure time (min) 60 [4, 5] | antimicrobial activity, Candida albicans, Exposure time (min) 10 [4, 6] | antimicrobial activity, Candida albicans, Exposure time (min) 20 [4, 6] | antimicrobial activity, Candida albicans, Exposure time (min) 40 [4, 6] | antimicrobial activity, Candida albicans, Exposure time (min) 60 [4, 6] | antimicrobial activity, Candida albicans, Exposure time (min) 10 [4, 7] | antimicrobial activity, Candida albicans, Exposure time (min) 20 [4, 7] | antimicrobial activity, Candida albicans, Exposure time (min) 40 [4, 7] | antimicrobial activity, Candida albicans, Exposure time (min) 60 [4, 7] | antimicrobial activity, Candida albicans, Exposure time (min) 10 [4, 8] | antimicrobial activity, Candida albicans, Exposure time (min) 20 [4, 8] | antimicrobial activity, Candida albicans, Exposure time (min) 40 [4, 8] | antimicrobial activity, Candida albicans, Exposure time (min) 60 [4, 8]
